According to PubChem BioAssay AID504834 (National Center for Advancing Translational Sciences (NCATS), 2011):
Screen size: about 320,000 compounds; about 22,000 (6.9%) were called active. The shares of active, inactive and inconclusive entries below differ from those in the screen. The call rests on the fitted dose curve; in most records, active means well fitted inhibition curve with a large enough effect; inconclusive means small, poorly fitted or top-dose-only effect, or another doubt; inactive means no such curve, though single readings can be large or run the other way. A potency beside an inconclusive call is a rough fit, not a confirmed value.

Assay: Primary qHTS for delayed death inhibitors of the malarial parasite plastid, 96 hour incubation
Details: P. falciparum luciferase reporter growth; series mostly up to 28.7 µM; activity change, negative = inhibition: at the top concentration
Summary of the method: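 Compounds incubated with erythrocytes infected by luciferase-expressing P. falciparum (2% hematocrit, 0.05% parasitemia final) for 96 hours, 37 C in 5% CO2. Growth inhibition scored as decreased luciferase luminescence.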
On the % scale 0 is the no-effect control and ±100 the full control effect; potency means the concentration at half of the fitted maximal effect.

Structure (SMILES) | activity change, negative = inhibition | Potency
CCN(CC(=O)Nc1cccc(OC)c1)C(=O)c1ccncc1 | inactive: 6.64% | –
CSc1nc(SCC(=O)NC(c2ccccc2)c2ccccc2)c2c3c(sc2n1)CN(C)CC3 | – | active: 2.94 µM
CCCC(=O)NC(=S)Nc1ccc(NC(=O)C(C)C)c(OC)c1 | – | inconclusive: 11.7 µM [inhibitor, single point]
COc1cccc(SCC2CSc3nc4ccccc4c(=O)n32)c1 (stereo not drawn) | – | inconclusive: 11.7 µM [inhibitor, partial curve, poor fit]
O=C(CN1CCC(C(O)(c2ccccc2)c2ccccc2)CC1)Nc1ccccc1 | – | inconclusive: 18.5 µM [inhibitor, single point]
COc1ccc(C(C(=O)NC(C)(C)C)N(C(=O)CCC(=O)Nc2cc(C)on2)c2cccc(F)c2)cc1 (stereo not drawn) | inactive: 28.6% | –
Cc1cccc(C(=O)N/N=C/c2ccc3c(c2)OCO3)n1 | inactive: 204% | –
CCCCCCCCCCCC(=O)N1CC(=O)NC(=O)C1 | – | inconclusive: 0.415 µM [inhibitor, full curve, poor fit]
COc1ccc(CCNC(=O)C2c3ccccc3C(=O)N2CCC(C)C)cc1OC (stereo not drawn) | – | active: 8.28 µM
Cc1ccc(-c2cn(-c3ccccc3)c(=S)[nH]2)cc1C | – | inconclusive: 2.62 µM [inhibitor, single point]
CCCCC[n+]1ccn(C2=C([O-])c3ccccc3C(=O)/C2=N\S(=O)(=O)c2ccc(Cl)cc2)c1 | – | inconclusive: 1.31 µM [inhibitor, full curve]
CCCNC(=O)NC(=O)CSc1nc2ccccc2c(=O)n1Cc1ccncc1 | – | active: 13.1 µM
CC1CCCN(c2ncnc3c2cnn3-c2ccccc2)C1 (stereo not drawn) | inactive: 95.8% | –
Cc1ccc(-c2c(C(=O)N3CCOCC3)oc(=O)c3ccccc23)cc1 | – | inconclusive: 14.7 µM [inhibitor, partial curve, poor fit]
N#Cc1cccc(NC(=O)CN2CCCCCC2)c1 | inactive: 15.8% | –
CCn1c(=O)n(CCOC)c(=O)c2c3c(sc21)CCCC3 | – | inconclusive: 0.522 µM [inhibitor, single point]
CC(CCc1ccco1)NC(=O)Nc1cccc(F)c1 (stereo not drawn) | – | inconclusive: 11.7 µM [inhibitor, single point]
COc1cccc(-n2nnnc2SCC(=O)Nc2ccc(C(C)=O)cc2)c1 | inactive: -101% | –
COC(=O)C1=C(c2cccc(C#N)c2)C[C@@H]2CC[C@H]1N2C(=O)NC1Cc2ccccc2C1 | – | inconclusive: 18.5 µM [inhibitor, single point]
CCOC(=O)C1(C)NC(c2cccs2)C2C(=O)N(c3ccc(OC)cc3)C(=O)C21 (stereo not drawn) | – | inconclusive: 18.5 µM [inhibitor, single point]
NC(=O)NCc1cccs1 | inactive: 8.47% | –
CCn1c(COc2ccccc2)nnc1SCC(=O)NCc1ccco1 | inactive: 51% | –
CC1Oc2ccccc2C=C1/C=N/NC(=O)[C@@H](C)NC(=O)OC(C)(C)C (stereo partly drawn) | – | inconclusive: 11.7 µM [inhibitor, single point]
CNCC[C@H](Oc1cccc2ccccc12)c1cccs1 | – | active: 6.75 µM
CC(C)(C)c1ccc(C(=O)c2c[nH]c(C(=O)NCCc3ccccn3)c2)cc1 | – | inconclusive: 3.29 µM [inhibitor, single point]

Structure (SMILES) | activity change, negative = inhibition | Potency
CCCCc1cc(=O)oc2cc(C)cc(OCC(=O)N3C[C@H]4C[C@@H](C3)c3cccc(=O)n3C4)c12 | – | inconclusive: 18.5 µM [inhibitor, partial curve, poor fit]
Cc1nn(C2CCS(=O)(=O)C2)c2nc(C3CC3)cc(C(=O)Nc3cccc(C#N)c3)c12 (stereo not drawn) | – | inconclusive: 10.4 µM [inhibitor, single point]
CC(C)NC(=O)CSc1nc(Cc2cccs2)nc2ccccc12 | – | inconclusive: 16.5 µM [inhibitor, single point]
COc1ccc(CNC(=O)CCn2c(=O)oc3ccccc32)c(OC)c1 | – | inconclusive: 11.7 µM [inhibitor, single point]
CSc1ccc(C(c2c(C(=O)O)[nH]c3ccccc23)c2c(C(=O)O)[nH]c3ccccc23)cc1 | inactive: -26.1% | –
CN(C)c1ccc(/C=N/NC(=O)CCCO)cc1 | inactive: 8.11% | –
N#C/C(=C/c1cccs1)c1nc2ccccc2[nH]1 | – | inconclusive: 16.5 µM [inhibitor, partial curve, poor fit]
COc1ccc(OC(=O)COc2ccc(C)cc2)cc1 | inactive: 25.4% | –
COc1ccccc1N1CCN(C(=O)/C=C/c2ccc(C)cc2)CC1 | inactive: 11.8% | –
O=C(COc1ccccc1)NCc1ccc(-n2cccc2)cc1 | – | inconclusive: 5.22 µM [inhibitor, partial curve, poor fit]
COc1ccc(NC(=O)NC2(C)CCS(=O)(=O)C2)cc1 (stereo not drawn) | – | inconclusive: 8.28 µM [inhibitor, partial curve]
O=C(CSC1=NCCS1)Nc1nc2c(s1)CCCC2 | – | inconclusive: 1.65 µM [inhibitor, full curve]
O=C(CN1C(=O)c2cccc([N+](=O)[O-])c2C1=O)N1CCN(S(=O)(=O)c2ccccc2)CC1 | inactive: -6.62% | –
CC(=O)c1ccc(NC(=O)C(C)OC(=O)CCN=C2NS(=O)(=O)c3ccccc32)cc1 (stereo not drawn) | – | inconclusive: 11.7 µM [inhibitor, partial curve, poor fit]
CCC1=NN(C(=O)Cc2ccc(OC)c(OC)c2)C(O)(C(F)(F)F)C1 (stereo not drawn) | inactive: -18.9% | –
COc1ccc(CN2CSC(=S)N(Cc3ccccc3)C2)cc1 | inactive: 10% | –
CCN(CC)c1ccc(NC(=O)c2cnc3ccccn3c2=O)c(C)c1 | – | inconclusive: 9.28 µM [inhibitor, partial curve]
O=C(CCCN1CCC(O)(c2ccc(Br)cc2)CC1)c1ccc(F)cc1 | – | active: 4.05 µM
Cc1onc(-c2c(Cl)cccc2Cl)c1C(=O)c1c[nH]c(C(=O)NC2CC2)c1 | inactive: -20.4% | –
Cc1nnsc1C(=O)NNC(=O)c1cccc2ccccc12 | inactive: 12.1% | –
CCC(=O)Nc1cc2nn(-c3ccc(C)cc3)nc2cc1C | – | inconclusive: 18.5 µM [inhibitor, single point]
CC(=O)N1CCc2c(sc(NC(=O)CS(=O)(=O)c3ccc(F)cc3)c2C(N)=O)C1 | inactive: 13.6% | –
CC(C)N(C(C)C)S(=O)(=O)c1ccc(N2CCc3ccccc3C2)nc1 | – | inconclusive: 18.5 µM [inhibitor, single point]
COc1ccc(CNC(=O)COC(=O)CO/N=C(\C)c2ccc3c(c2)OCO3)cc1 | inactive: 53.6% | –
Nc1c(C(=O)NC2CCCCC2)c2nc3ccccc3nc2n1/N=C/c1ccco1 | – | active: 9.28 µM

Entries of single compounds from above:
`Nc1c(C(=O)NC2CCCCC2)c2nc3ccccc3nc2n1/N=C/c1ccco1` in the list: Potency: active: 9.28 µM
`O=C(CN1C(=O)c2cccc([N+](=O)[O-])c2C1=O)N1CCN(S(=O)(=O)c2ccccc2)CC1` in the list: activity change, negative = inhibition: inactive: -6.62%
`CCN(CC)c1ccc(NC(=O)c2cnc3ccccn3c2=O)c(C)c1` in the list: Potency: inconclusive: 9.28 µM [inhibitor, partial curve]

(cont.)

Structure (SMILES) | activity change, negative = inhibition | Potency
CC(=O)Nc1ccc(C(=O)Nc2nc(-c3cc(C)n(Cc4ccccc4)c3C)cs2)cc1 | – | active: 4.15 µM
COc1ccccc1CCN1CCCC(CN(C)C(=O)c2ccco2)C1 (stereo not drawn) | inactive: -1.36% | –
Cc1ccc(N(C(=O)Cc2cccs2)C(C(=O)NC2CCCC2)c2ccncc2)cc1 (stereo not drawn) | – | active: 0.928 µM
Nc1ccc(Nc2cc(O)c3ncccc3c2)cc1 | – | inconclusive: 18.5 µM [inhibitor, single point]
CN(C)N(Cc1ccccc1)C(=O)C(O)(c1ccccc1)c1ccccc1 | – | inconclusive: 18.5 µM [inhibitor, single point]
Cc1ccc(O)c(NC(=O)c2cc(-c3cccs3)on2)c1 | inactive: 14.2% | –
COc1ccc(Cl)cc1NC(=O)CN(C)Cc1cccs1 | – | inconclusive: 13.1 µM [inhibitor, single point]
Cc1nc2ncnn2c(C)c1CCC(=O)N1CCC2(CC1)OCCO2 | – | inconclusive: 11.7 µM [inhibitor, single point]
CC(C)CNC(=S)NNC(=O)c1ccccc1OC(F)F | – | inconclusive: 0.0294 µM [inhibitor, full curve, poor fit]
COc1cccc(C(=O)N(CN2CCCC2=O)c2cccc(Cl)c2)c1 | – | inconclusive: 11.7 µM [inhibitor, single point]
CCCCN(C)S(=O)(=O)c1ccc(C(=O)Nc2nnc(-c3ccco3)o2)cc1 | – | inconclusive: 10.4 µM [inhibitor, single point]
CCCCC(C(=O)OCC)C(N)Cc1ccc(F)cc1 (stereo not drawn) | inactive: 45.4% | –
c1ccc(-c2cnc(SCCN3CCOCC3)n2CC2CCCO2)cc1 (stereo not drawn) | – | inconclusive: 13.1 µM [inhibitor, single point]
COc1ccccc1CC(=O)NC1CCCCCC1 | – | inconclusive: 14.7 µM [inhibitor, single point]
CCn1c(SCC(=O)NNC(=O)c2ccccc2)nnc1-c1ccncc1 | – | inconclusive: 20.8 µM [inhibitor, partial curve, poor fit]
COc1ccc(N=C2S/C(=C\c3ccc(C)s3)C(=O)N2CC(C)C)cc1 | – | inconclusive: 4.15 µM [inhibitor, partial curve, poor fit]
Cc1cc(/C=N/NC(=O)CC2(C)OCCO2)c(C)n1-c1cc(Cl)cc(Cl)c1 | – | inconclusive: 5.86 µM [inhibitor, single point]
COc1ccc(OCCn2ccnc2C)cc1 | – | inconclusive: 18.5 µM [inhibitor, single point]
CCN(Cc1nc2ccccc2c(=O)[nH]1)C(=O)CN1C(=O)NC2(CCCCC2C)C1=O (stereo not drawn) | – | inconclusive: 18.5 µM [inhibitor, single point]
COc1ccc(CCc2nnc(NS(C)(=O)=O)s2)cc1 | inactive: -28.9% | –
C[C@@H](C(=O)Nc1ccccc1N1CCOCC1)N1C(=O)C2CC=CCC2C1=O (stereo partly drawn) | – | inconclusive: 14.7 µM [inhibitor, partial curve, poor fit]
O=C(CCS(=O)(=O)Cc1ccccc1)Nc1ncc([N+](=O)[O-])s1 | inactive: -6.42% | –
COc1ccc(CC(=O)NCc2ccccc2)cc1S(=O)(=O)N1CCOCC1 | – | inconclusive: 10.4 µM [inhibitor, single point]
